Assay results from patent publication EP4631969A1, “PEPTIDE FOR CARTILAGE REGENERATION, AND USES THEREOF” (Caregen Co., Ltd., priority 2022, dated 2024).
At least one peptide structure holds a part that was inferred or is arguable (an end, a ring closure or a residue). Where no end group is shown, it is not given here.

What was measured:
Format in all cases: cell-based
[1] = system: Human Adipose-Derived Mesenchymal Stem Cells (AD-MSC); assay: Protein expression of ECM regulatory factors SOX5, SOX6 and SOX9 (Western blotting); settings: about 30, 50, or 100 µg/ml, 3, 7, and 14 days of culture
[2] = system: Human Adipose-Derived Mesenchymal Stem Cells (AD-MSC); assay: Glycosaminoglycan production (Alcian blue staining); settings: Peptide-1: about 30, 50, 100, or 200 µg/ml; Peptide-2: about 50, 100, or 200 µg/ml; 14 and 21 days of culture
[3] = system: Human Adipose-Derived Mesenchymal Stem Cells (AD-MSC); assay: mRNA expression of ECM regulatory factor SOX9 (PCR); settings: about 30, 50, or 100 µg/ml, 3 days, 7 days, and 14 days of culture
[4] = system: Human Adipose-Derived Mesenchymal Stem Cells (AD-MSC); assay: Protein expression of Aggrecan and COL2A1 (Western blotting); settings: about 30, 50, or 100 µg/ml, 3, 7, and 14 days of culture
[5] = system: Human Adipose-Derived Mesenchymal Stem Cells (AD-MSC); assay: mRNA expression of ECM components (PCR); settings: about 30, 50, or 100 µg/ml, 3 days, 7 days, and 14 days of culture

Row | Substance | expression of SOX5 protein [1] | expression of SOX6 protein [1] | expression of SOX9 protein [1] | production of glycosaminoglycan [2] | expression of the SOX9 gene [3] | expression of Aggrecan protein [4] | expression of COL2A1 protein [4] | expression of ACAN gene [5] | expression of COL2A1 gene [5] | expression of COL11A1 gene [5] | expression of COMP gene [5] | expression of PCP gene [5]
1 | HHEQF [Peptide-2, HHEQF] | increased in a concentration-dependent manner | increased in a concentration-dependent manner | increased in a concentration-dependent manner | may increase in a concentration-dependent manner | increased in a concentration-dependent manner | increased in a concentration-dependent manner | increased in a concentration-dependent manner | increased in a concentration-dependent manner | increased in a concentration-dependent manner | increased in a concentration-dependent manner | increased in a concentration-dependent manner | increased in a concentration-dependent manner
2 | STGALSTSFTEE [Peptide-1, STGALSTSFTEE] | increased in a concentration-dependent manner | increased in a concentration-dependent manner | increased in a concentration-dependent manner | may increase in a concentration-dependent manner | increased in a concentration-dependent manner | increased in a concentration-dependent manner | increased in a concentration-dependent manner | – | increased in a concentration-dependent manner | increased in a concentration-dependent manner | increased in a concentration-dependent manner | –
